This is one part of the list. These are further read-outs of the screen, such as a control signal, another cell line or another target. No call is given for them. Most of these compounds were active or inconclusive in the main read-out, so they are no random draw. The note in brackets gives the kind of curve behind each potency; many fits are weak.
Assay: qHTS Assay to Find Inhibitors of Chronic Active B-Cell Receptor Signaling
Settings: ABC-DLBCL IkBa-CBG/CBR reporter, luminescence ratio (green luciferase fused to IkBa over red control in TMD8 lymphoma cells), 4 h
In short: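 Cell line TMD8 (human ABC DLBCL), stably expressing tet-inducible CBG68-IkBa fusion and CBR; IMDM/0.5% FBS; cpd up to 46 uM; dox induction, 4 h, 37C/5% CO2; dual luminescence; green/red ratio; MG132 control.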

[1] = measured here: CBR red luminescence, cell number
[2] = measured here: IkBa-CBG green luminescence

Row | Structure (SMILES) | AC50 [1] | AC50 [2]
1 | S=c1[nH]nc(C2CCCCC2)n1/N=C/C(Cl)=C\c1ccccc1 | 6.51 µM [falling, partial curve] | –
2 | O=C(/C=C\c1ccccc1)Oc1cccc2cccnc12 | 35.5 µM [falling, single point] | 15.8 µM [falling, partial curve]
3 | c1ccc(CCN2CN=C(Nc3nc4ccccc4o3)NC2)cc1 | 29.1 µM [rising, partial curve, poor fit] | –
4 | COc1ccc(-n2nnc3c(SCC(=O)NCc4ccco4)ncnc32)cc1 | 12.6 µM [falling, partial curve] | –
5 | CCOC(=O)c1ccc(NC(=O)CSc2nnc(CNc3ccc(C)cc3)n2C)cc1 | 18.4 µM [falling, partial curve, poor fit] | –
6 | COC(=O)CSc1nnc(C)c(=O)[nH]1 | 0.731 µM [falling, partial curve, poor fit] | –
7 | CCOCCCNC(=O)C1CCN(Cc2cccc(OCc3ccccc3)c2)CC1 | 8.91 µM [rising, partial curve, poor fit] | –
8 | Cc1cccc(N2CCN(C(=O)c3ccc(CS(=O)Cc4ccc(Cl)cc4)o3)CC2)c1C (configuration not stated) | 35.5 µM [falling, single point] | –
9 | Cc1cc(C)cc(OC(C)C(=O)Nc2ccc3c(c2)n(C)c(=O)n3C)c1 (configuration not stated) | 35.5 µM [rising, partial curve, poor fit] | –
10 | COc1ccccc1Nc1nnc(SCC2CCCCO2)s1 (configuration not stated) | 4.47 µM [falling, full curve, poor fit] | 10 µM [falling, partial curve, poor fit]
11 | CCn1cc(C(=O)Nc2ccccc2C(=O)OC)c(=O)c2ccc(C)nc21 | 11.2 µM [falling, single point] | –
12 | CCN(C(=O)/C=C/c1ccccc1)C1CCCCC1 | 1.26 µM [rising, partial curve, poor fit] | –
13 | COc1cc(C2c3sc(=O)[nH]c3SC3C(=O)N(c4ccc(C)cc4)C(=O)C32)ccc1O (configuration not stated) | 22.4 µM [falling, single point] | –
14 | CC1(C)CCCN(C(=O)c2coc(=O)c(Br)c2)C1 | 0.447 µM [rising, partial curve, poor fit] | –
15 | CSc1ccccc1OCc1cc(C(=O)N(C)Cc2cc(C)[nH]n2)no1 | 2.82 µM [falling, full curve] | –
16 | O=C(O)c1cc([N+](=O)[O-])c(NCCC2=CCCCC2)c([N+](=O)[O-])c1 | – | 4.47 µM [rising, full curve, poor fit]
17 | C=CCn1c(SCC(=O)c2cccs2)nc2sc(C)c(C)c2c1=O | 16.4 µM [rising, single point] | –
18 | Cc1cccc(NC(=O)CCOc2ccccc2)c1C | 10 µM [falling, partial curve] | –
19 | CCCC(=O)Nc1ccc(C(=O)N/N=C/c2ccc[nH]2)cc1 | 23.1 µM [rising, single point] | –
20 | CC(=O)NC(C)C(=O)OCC(=O)c1ccc(-c2ccccc2)cc1 (configuration not stated) | 35.5 µM [rising, single point] | –

Row | Structure (SMILES) | AC50 [1] | AC50 [2]
21 | O=C(Nc1ccccc1C(=O)NC(Cc1c[nH]c2ccccc12)C(=O)O)c1ccccc1 (configuration not stated) | 31.6 µM [falling, partial curve, poor fit] | –
22 | CSCCC1NC2(C(=O)Nc3c2ccc(Cl)c3C)[C@@H]2C(=O)N(C3CCCC3)C(=O)[C@H]12 (some centres not stated) | 29.1 µM [rising, single point] | –
23 | O=C(Nc1ccccc1C(=O)N1CCCC1)c1ncoc1-c1cccc(Cl)c1 | 14.1 µM [falling, partial curve, poor fit] | –
24 | N=c1c(S(=O)(=O)c2ccccc2)cc2c(=O)n3ccccc3nc2n1Cc1ccco1 | 1.58 µM [falling, partial curve] | –
25 | C/C(=N\NC(=O)c1cccc(F)c1)c1ccc(NC(=O)Cc2ccccc2)cc1 | 35.5 µM [falling, single point] | –
26 | CCOC(=O)c1sc(NC(=O)CN2CCN(c3ccc(OC)cc3)CC2)nc1C | 22.4 µM [falling, single point] | –
27 | COc1ccc(C(=O)COc2ccccc2C#N)cc1 | 0.447 µM [rising, full curve, poor fit] | –
28 | CC1CCN(CCCNC(=O)c2cc(Sc3ccc(F)cc3)nc3ccccc23)CC1 | 15.8 µM [falling, single point] | –
29 | CC(=O)c1cc(CN2CCC(C(=O)Nc3cccc(-c4cscn4)c3)CC2)cs1 | 6.31 µM [falling, single point] | –
30 | COc1cccc(C2c3[nH]c4ccccc4c3CCN2Cc2cnc(C)s2)c1OC (configuration not stated) | 5.62 µM [rising, single point] | –
31 | O=C(CCC(=O)NNc1nc2ccccc2c2nc(-c3ccccc3)nn12)NCCCN1CCCC1=O | 31.6 µM [falling, single point] | –
32 | O=[N+]([O-])c1ccc(/C=N/Nc2ccnc3cc(Cl)ccc23)o1 | 0.562 µM [rising, partial curve, poor fit] | –
33 | Cn1nc(C(=O)OCC(=O)N2CCc3ccccc32)c2ccccc2c1=O | 5.8 µM [falling, single point] | –
34 | COc1ccc(N2CCN(CCCNC(=O)C(=O)c3c[nH]c4ccccc34)CC2)cc1 | 17.8 µM [falling, partial curve, poor fit] | –
35 | Cc1ccc(NC(=O)CSc2n[nH]c(-c3ccco3)n2)cc1 | 35.5 µM [falling, single point] | –
36 | Cc1ccc(-c2nc3ccc(Cl)cc3n2OC(C)C(=O)O)cc1 (configuration not stated) | 3.98 µM [rising, single point] | –
37 | COc1ccccc1NCc1nnc(-c2ccccc2)o1 | 14.1 µM [falling, single point] | –
38 | CCOC(=O)C(CC)Sc1nnc2c3cc(C)ccc3n(C)c2n1 (configuration not stated) | 22.4 µM [falling, single point] | –
39 | COc1ccc(OCC(O)CNCCOc2ccccc2OC)c(C(C)(C)C)c1 (configuration not stated) | 14.1 µM [falling, single point] | –
40 | CCN(CC)S(=O)(=O)c1ccc(C(=O)Nc2ccc3c(c2)OCCO3)cc1 | 5.62 µM [falling, full curve, poor fit] | –

One compound at a time, as listed above.
O=C(Nc1ccccc1C(=O)N1CCCC1)c1ncoc1-c1cccc(Cl)c1 as listed: AC50 [1]: 14.1 µM [falling, partial curve, poor fit]
COc1ccc(C(=O)COc2ccccc2C#N)cc1 as listed: AC50 [1]: 0.447 µM [rising, full curve, poor fit]

Reference: PubChem BioAssay AID493014 (National Center for Advancing Translational Sciences (NCATS), 2011)
